The values that follow come from patent US20090098549.

The chains behind the UniProt entries cited, without tags or fusion partners. Residues count along the entry.
UniProt P35968, 20-764: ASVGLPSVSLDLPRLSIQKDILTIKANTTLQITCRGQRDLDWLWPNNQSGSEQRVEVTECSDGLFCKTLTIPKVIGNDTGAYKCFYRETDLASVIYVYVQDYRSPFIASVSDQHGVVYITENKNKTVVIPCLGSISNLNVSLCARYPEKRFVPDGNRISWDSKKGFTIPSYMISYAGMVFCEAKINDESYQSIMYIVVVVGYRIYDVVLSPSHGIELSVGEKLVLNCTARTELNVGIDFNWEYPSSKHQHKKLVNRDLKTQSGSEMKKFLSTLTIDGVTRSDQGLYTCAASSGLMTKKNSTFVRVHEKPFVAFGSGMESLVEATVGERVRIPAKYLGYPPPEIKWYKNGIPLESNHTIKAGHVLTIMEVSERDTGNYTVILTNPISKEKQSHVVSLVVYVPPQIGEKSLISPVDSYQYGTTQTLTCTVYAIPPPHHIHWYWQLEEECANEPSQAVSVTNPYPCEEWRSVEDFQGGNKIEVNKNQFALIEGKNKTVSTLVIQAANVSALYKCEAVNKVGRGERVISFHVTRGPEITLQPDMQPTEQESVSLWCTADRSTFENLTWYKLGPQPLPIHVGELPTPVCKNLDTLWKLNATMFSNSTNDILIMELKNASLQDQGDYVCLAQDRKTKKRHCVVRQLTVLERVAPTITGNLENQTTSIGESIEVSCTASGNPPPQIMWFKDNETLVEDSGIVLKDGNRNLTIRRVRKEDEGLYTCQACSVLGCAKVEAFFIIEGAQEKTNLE

The data set concerns the target VEGF-sR2 (VEGF soluble receptor 2) (UniProt P35968). The data set is described as follows: binding assay. The settings on record: T=BzdU; consecutive dC pairs replaced by BrdC in variants; photocrosslink to 100 nM protein tested for BrdC pair variants; purified recombinant protein; label: 32P; single-stranded DNA.

The exact form of at least one protein or probe is not confirmed.

Consider “CCGTATGCCGCCGTCGGCGTTTTAAGACCTTAG [1546-23 (variable region)]”, for which the binding result was “binds”.
